Experimental data: PubChem BioAssay AID743454 (Peter MacCallum Cancer Centre, 2014)
The deposit covers about 18,000 reagents; shown is a part drawn at random. In the full data, 450 (2.5%) got an active call. 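Single biological run; no consistent viability z cut-off exists, so the class columns, not z-scores, define the calls.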

- Aim: 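Knock-downs lowering viability or raising caspase 3/7 activity in vorinostat-treated resistant cells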 (primary screen)
- Cells: human HCT116-VR colon cancer cells, selected for vorinostat resistance
- Knock-down reagent: siRNA pool against human genes, 40 nM siRNA pool
- Timing: vorinostat for 24 h, read-out about 72 h after transfection
- Conditions: vorinostat at 2.5 µM final
- Read-out: 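Cell viability by CellTiter-Fluor and caspase 3/7 activity by luminescence, each scaled to mock wells per plate, duplicates averaged, then robust z-scored over all plates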
- Scale: viability robust z-score: higher = more viable cells than screen typical; caspase robust z-score: higher = more caspase 3/7 activity than screen typical
- Active means: 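Hits are knock-downs in viability class RV1/RV2 or caspase class CA1/CA2, excluding ones that killed cells in the no-drug cell-count arm; hits then retested with single siRNAs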

| target gene | viability hit class | caspase hit class | viability robust z-score | caspase robust z-score | Outcome |
| --- | --- | --- | --- | --- | --- |
| CAPN1 | no change | no change | 0.97 | -0.5 | inactive |
| NFRKB | no change | no change | -1.41 | 0.69 | inactive |
| ZNF668 | no change | no change | 0.2 | -1.04 | inactive |
| RORB | no change | no change | -2.42 | 2.17 | inactive |
| COPS3 | no change | no change | -0.94 | 0.16 | inactive |
| HS2ST1 | no change | no change | -0.15 | 0.38 | inactive |
| OIP5 | no change | no change | 1.3 | 0.02 | inactive |
| ZNF266 | no change | no change | 1.13 | 1.27 | inactive |
| BMP4 | no change | no change | 0.26 | -0.16 | inactive |
| FAH | no change | no change | 0.34 | 0.25 | inactive |
| NEURL1 | no change | no change | 0.2 | -0.38 | inactive |
| PHYHIP | no change | no change | -2.8 | 3.25 | inactive |
| ANPEP | no change | no change | -0.09 | 0.4 | inactive |
| TRAIP | no change | no change | -1.27 | 0.66 | inactive |
| SCNN1D | no change | no change | 0.8 | -0.53 | inactive |
| TAS2R3 | no change | no change | 1.2 | 0.64 | inactive |
| ITGB6 | no change | no change | -0.58 | 1.55 | inactive |
| IREB2 | no change | no change | 0.38 | -0.89 | inactive |
| CENPB | no change | no change | 1.15 | 1.39 | inactive |
| ALLC | no change | no change | 0.62 | -0.14 | inactive |
| FAM9C | no change | no change | -0.49 | -1.02 | inactive |
| WNT8A | no change | no change | -1.09 | 1.29 | inactive |
| GRM7 | no change | no change | -0.22 | -0.02 | inactive |
| PPP1R10 | no change | no change | -1.44 | 3.59 | inactive |
| WWTR1 | no change | no change | -0.34 | 0.86 | inactive |
| LIME1 | no change | no change | -0.08 | 2.35 | inactive |
| SPACDR | no change | no change | -0.76 | 1.35 | inactive |
| COG4 | no change | no change | -0.28 | -0.32 | inactive |
| PNKD | no change | no change | -1.19 | 0.02 | inactive |
| NSL1 | no change | no change | 0.55 | 1.25 | inactive |

3 entries from above, showing only “caspase hit class”.
TRAIP	no change
SCNN1D	no change
TAS2R3	no change

The results go on:
| target gene | viability hit class | caspase hit class | viability robust z-score | caspase robust z-score | Outcome |
| --- | --- | --- | --- | --- | --- |
| EIF4EBP2 | no change | no change | -0.13 | 1.88 | inactive |
| STON2 | no change | no change | -3.08 | 1.74 | inactive |
| FARP2 | no change | no change | 0.7 | -0.58 | inactive |
| KHNYN | no change | no change | -0.07 | -0.22 | inactive |
| ARNT | no change | no change | -1.17 | 3.66 | inactive |
| PSD | no change | no change | -1.31 | 2.08 | inactive |
| OR5D18 | no change | no change | 0.47 | 0.09 | inactive |
| TCHP | no change | no change | 0.59 | -0.5 | inactive |
| SV2A | no change | no change | 0.48 | -0.95 | inactive |
| NEUROD2 | no change | no change | -0.72 | 1.07 | inactive |
| ALKBH3 | no change | no change | 1.38 | -0.31 | inactive |
| KLK3 | no change | no change | -3.11 | 0.43 | inactive |
| CDC50B | no change | no change | 1.2 | -0.18 | inactive |
| IGF1 | no change | no change | -0.12 | 3.8 | inactive |
| PGK1 | no change | no change | -0.23 | 1.64 | inactive |
| MAGEC1 | no change | no change | -1.04 | 1.3 | inactive |
| SLC26A9 | no change | no change | 0.38 | -1.05 | inactive |
| ACSL6 | no change | no change | 0.39 | -0.01 | inactive |
| MESP1 | no change | no change | 1.06 | 1.27 | inactive |
| ERV3-1 | no change | no change | 0.14 | 1.14 | inactive |
| BMX | no change | no change | -0.48 | -0.12 | inactive |
| DAGLA | no change | no change | 0.9 | 3.2 | inactive |
| ZG16B | no change | no change | -2.38 | -0.07 | inactive |
| PTEN | no change | no change | 0.39 | 0.93 | inactive |
| C3orf62 | no change | no change | -1.36 | 0.13 | inactive |
| APBB1 | no change | no change | -1.31 | -0.36 | inactive |
| ITGA7 | no change | no change | -0.48 | -0.56 | inactive |
